Measurements reported in PMC10219569.
Where a chain is given by its changes, count along the chain named. These are yes or no findings as the source states them, for the method shown. In cells and extracts the contact can be indirect. Some binding calls cover weakened binding; strength is not graded here. For part of these data: Where a sequence is shown, tags or fusion partners need not be part of it.

Amino acid sequences for entries named in this document (tags omitted).
UniProt Q9NNX6: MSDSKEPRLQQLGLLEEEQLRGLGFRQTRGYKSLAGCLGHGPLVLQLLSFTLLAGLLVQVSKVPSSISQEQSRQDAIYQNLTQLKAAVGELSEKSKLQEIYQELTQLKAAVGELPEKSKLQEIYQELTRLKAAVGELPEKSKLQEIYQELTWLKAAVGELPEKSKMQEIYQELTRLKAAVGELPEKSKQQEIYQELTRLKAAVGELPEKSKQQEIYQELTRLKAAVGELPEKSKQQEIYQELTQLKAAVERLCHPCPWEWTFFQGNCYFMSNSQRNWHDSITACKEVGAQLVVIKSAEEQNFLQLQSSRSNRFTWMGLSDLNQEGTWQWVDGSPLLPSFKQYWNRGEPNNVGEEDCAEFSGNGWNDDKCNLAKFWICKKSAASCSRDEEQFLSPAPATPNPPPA

Key:
HA-ATG9 = target: T1, HA-ATG9 (UniProt Q7Z3C6); experiment: co-IP; HEK-DC-SIGN cells transfected with HA-ATG9 constructs, treated or not with ManLAM for 30 min; lysates on Protein A/G sepharose beads pre-coated with anti-HA overnight; blot for DC-SIGN
T1 sequence: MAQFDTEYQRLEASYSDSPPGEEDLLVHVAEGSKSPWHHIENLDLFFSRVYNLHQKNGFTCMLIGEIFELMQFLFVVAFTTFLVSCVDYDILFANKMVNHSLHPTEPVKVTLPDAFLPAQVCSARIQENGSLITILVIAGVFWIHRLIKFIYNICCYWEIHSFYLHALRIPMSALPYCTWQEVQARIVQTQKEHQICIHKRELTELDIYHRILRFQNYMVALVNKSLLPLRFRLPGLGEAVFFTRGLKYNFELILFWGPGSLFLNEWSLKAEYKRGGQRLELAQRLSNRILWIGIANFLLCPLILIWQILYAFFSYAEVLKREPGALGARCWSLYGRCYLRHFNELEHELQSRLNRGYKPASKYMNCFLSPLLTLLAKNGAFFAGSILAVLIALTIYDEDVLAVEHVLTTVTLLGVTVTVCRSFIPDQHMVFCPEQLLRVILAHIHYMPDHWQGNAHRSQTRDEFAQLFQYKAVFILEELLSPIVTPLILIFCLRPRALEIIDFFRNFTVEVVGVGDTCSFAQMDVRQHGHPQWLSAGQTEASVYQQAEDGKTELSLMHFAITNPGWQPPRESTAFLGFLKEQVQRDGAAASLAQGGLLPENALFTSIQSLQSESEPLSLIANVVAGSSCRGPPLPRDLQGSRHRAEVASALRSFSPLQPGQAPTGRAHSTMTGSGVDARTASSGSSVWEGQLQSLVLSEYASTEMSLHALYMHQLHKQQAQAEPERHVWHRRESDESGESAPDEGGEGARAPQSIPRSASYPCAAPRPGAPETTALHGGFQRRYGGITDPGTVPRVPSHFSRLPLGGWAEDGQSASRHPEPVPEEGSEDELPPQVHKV

HA-ATG9 N99D = target: T2, HA-ATG9 N99D (UniProt Q7Z3C6); experiment: as above
T2 sequence: T1 sequence with N99D

GST-LC3A = GST-LC3A (UniProt Q9H492); experiment: pull-down; HEK293T cells co-transfected with DC-SIGN WT and GST-LC3 constructs; cells engaged or not with DC-SIGN mAbs (5 ug/mL) for 30 min; lysates incubated with glutathione-sepharose beads 3 h at 4 C; blot with anti-DC-SIGN

binding (HA-ATG9) | binding (HA-ATG9 N99D) | binding (GST-LC3A) | Substance
binds | binds |  | DC-SIGN stably expressed in HEK-DC-SIGN cells (from UniProt Q9NNX6 1-404) (receptor)
 |  | binds | wild-type DC-SIGN (from UniProt Q9NNX6 1-404) (receptor)
